Data published in publication PMC6532146.
These are yes or no findings as the source states them, for the method shown. Binding seen in cells or lysates may run through a third protein. Some entries that bind do so weakly or less than the wild type.

Chains of the proteins cited; added tags and fusions are not shown.
UniProt Q12929: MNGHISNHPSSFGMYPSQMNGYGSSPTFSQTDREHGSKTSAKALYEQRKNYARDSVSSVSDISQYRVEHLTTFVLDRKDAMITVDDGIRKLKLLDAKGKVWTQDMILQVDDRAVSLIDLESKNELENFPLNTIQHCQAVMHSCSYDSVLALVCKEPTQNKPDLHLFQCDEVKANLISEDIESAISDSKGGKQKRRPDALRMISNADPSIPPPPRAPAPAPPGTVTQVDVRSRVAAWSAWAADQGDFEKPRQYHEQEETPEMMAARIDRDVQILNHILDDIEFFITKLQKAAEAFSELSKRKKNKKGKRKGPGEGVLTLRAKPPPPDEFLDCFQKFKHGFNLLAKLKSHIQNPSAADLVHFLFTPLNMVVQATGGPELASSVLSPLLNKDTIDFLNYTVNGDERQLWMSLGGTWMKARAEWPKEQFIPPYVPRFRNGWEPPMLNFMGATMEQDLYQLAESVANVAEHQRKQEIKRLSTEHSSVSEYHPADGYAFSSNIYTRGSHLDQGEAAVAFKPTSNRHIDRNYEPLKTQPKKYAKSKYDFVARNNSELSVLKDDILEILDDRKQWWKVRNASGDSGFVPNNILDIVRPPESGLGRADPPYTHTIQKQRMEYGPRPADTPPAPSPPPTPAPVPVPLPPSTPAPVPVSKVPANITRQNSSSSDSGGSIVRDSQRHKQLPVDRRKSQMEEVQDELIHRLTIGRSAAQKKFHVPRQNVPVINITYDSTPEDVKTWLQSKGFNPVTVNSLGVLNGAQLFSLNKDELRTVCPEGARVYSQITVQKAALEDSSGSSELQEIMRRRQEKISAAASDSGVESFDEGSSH

Columns and labels:
[1] = molecular target: Epidermal growth factor receptor (EGFR) (human (endogenous in A549, H460 and MDA-MB-468)) (UniProt P00533); assay: co-IP; endogenous proteins; anti-EGFR antibody (or IgG) coupled to AminoLink plus resin (Pierce CoIP kit), 1000 ug lysate of A549, H460 or MDA-MB-468 cells, incubated 2 h at room temperature; immunoblot with anti-Eps8; cells untreated or treated with DMSO
[2] = molecular target: Epidermal growth factor receptor (EGFR) (human (endogenous in A549, H460 and MDA-MB-468)) (UniProt P00533); assay: co-IP; as a1, but MDA-MB-468 cells treated with the small molecule EE02 (10 uM) for 24 h before lysis; anti-EGFR immunoprecipitation, anti-Eps8 blot

Question: “Epidermal growth factor receptor pathway substrate 8 (Eps8) (from UniProt Q12929 1-822)” was tested. Which binding [1] did it give?
Answer: binds

Question: What about the binding [2] of the same substance?
Answer: binds weakly
